Assay results: patent US20070142306A1, “Strontium-based complexes, pharmaceutical compositions and dietetic products” (MEDESIS PHARMA SA, priority 2003, published 2007)
Values joined by “and” are separate entries in the source; they are usually repeats but may differ in a detail not shown here. Identical values can stand only once.

Test: Assay of calcium in femoral bones
Assay type: in vivo, rat
Conditions: femoral bone, 68.2 mg/kg/d strontium metal, rectal, 21 days

[Cl-].[Cl-].[Sr+2] [Strontium chloride, strontium chloride]
Ca concentration, Mean (group mean): 70.606 mg/g
Ca concentration (individual rats, 68.2 mg/kg/day): 77.882 mg/g and 79.211 mg/g and 72.946 mg/g and 57.229 mg/g and 64.538 mg/g and 71.630 mg/g and 70.192 mg/g and 71.221 mg/g
